Source: publication doi:10.1101/2022.01.17.476689

Tests used:
Experiment in all cases: split reporter
[1] = molecular target: T1, GALR1 H263^6.51F mutant (NanoBiT construct) (human) (UniProt P47211)
T1 sequence: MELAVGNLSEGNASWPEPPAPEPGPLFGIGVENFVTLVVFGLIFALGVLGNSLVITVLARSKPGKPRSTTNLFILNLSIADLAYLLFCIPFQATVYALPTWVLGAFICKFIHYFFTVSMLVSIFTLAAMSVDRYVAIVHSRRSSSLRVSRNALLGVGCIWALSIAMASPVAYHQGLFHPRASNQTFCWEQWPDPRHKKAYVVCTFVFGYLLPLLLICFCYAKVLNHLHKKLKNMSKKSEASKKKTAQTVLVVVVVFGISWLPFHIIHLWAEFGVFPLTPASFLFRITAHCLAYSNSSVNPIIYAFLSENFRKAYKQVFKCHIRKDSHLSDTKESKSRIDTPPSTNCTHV

[2] = molecular target: T2, GALR1 H112^3.29A mutant (NanoBiT construct) (human) (UniProt P47211)
T2 sequence: T1 sequence with H112A, F263H

[3] = molecular target: T3, GALR1 H267A mutant (NanoBiT construct) (human) (UniProt P47211)
T3 sequence: T1 sequence with F263H, H267A

[4] = molecular target: T4, GALR1 H264^6.52F mutant (NanoBiT construct) (human) (UniProt P47211)
T4 sequence: T1 sequence with F263H, H264F

Measured: binding

mini-Gαo fused at its N-terminus to the large NanoBiT fragment (domain or fragment)
binds: all assays above

Where a chain is given by its changes, count along the chain named. These are yes or no findings as the source states them, for the method shown. Binding seen in cells or lysates may run through a third protein. Binding can be weak; no strength is given.
